The list shows a part of the results.
These sequences were tested against OsWRKY34 (Oryza sativa, UniProt Q0JBA9 1-250) (assay: protein-binding microarray (RPBM); PBS, 2% BSA, 51.3 ng/ul salmon testes DNA, 50 uM zinc acetate, 200 nM TF, 25 C, 1 h; high values mean tight binding). Conditions: protein: recombinant; tags: N-terminal polyhistidine and DsRed monomer fusion (pET32a); label: CyDye5-dUTP incorporated in the synthesized complementary strand; 3' TTTTT single-stranded linker to array surface; dsDNA, one strand shown.
How it was run: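 The binding signal is fluorescence intensity per array feature (arbitrary units). Readings came from an Axon 4000B scanner after a washed, 2% BSA-blocked, double-stranded custom Agilent array had been incubated for 1 h at 25 °C with 200 nM protein and 50 µM zinc acetate. The protein was a Ni–NTA-purified transcription factor fused N-terminally to polyhistidine and DsRed, expressed in E. coli BL21-CodonPlus.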

Protein sequences, listed by entry. Tags and fused reporters are not part of them.
UniProt Q0JBA9, entry or part of it: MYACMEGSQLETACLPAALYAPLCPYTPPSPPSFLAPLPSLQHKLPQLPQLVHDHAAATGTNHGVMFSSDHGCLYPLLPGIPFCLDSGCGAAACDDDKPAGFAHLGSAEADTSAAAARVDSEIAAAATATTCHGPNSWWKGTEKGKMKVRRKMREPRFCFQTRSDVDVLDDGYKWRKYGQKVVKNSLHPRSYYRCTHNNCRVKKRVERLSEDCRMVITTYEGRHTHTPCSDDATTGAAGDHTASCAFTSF

| Sequence | binding signal |
| --- | --- |
| GTCCGCATCGAGCCGCAGATCTTTCTCACCGCCACCGATGCGGAGTCACCTAGTGCAG | 8140 fluorescence intensity (a.u.) |
| TACCATTTATTCTATTGTGACTTGATTCATCAACAAATGTCGGAGTCACCTAGTGCAG | 8490 fluorescence intensity (a.u.) |
| TTGGTTGTGACATTATTCCATACTTCTTCTAAATGCTATACGGAGTCACCTAGTGCAG | 8260 fluorescence intensity (a.u.) |
| TCTGCGGTCTAATCAAATGACTATTCTTGTGTTTTTTTCTCGGAGTCACCTAGTGCAG | 8230 fluorescence intensity (a.u.) |
| CTGCTAAGCTTATTTATAGGCCTCCACTCACTCATCTCTCCGGAGTCACCTAGTGCAG | 8910 fluorescence intensity (a.u.) |
| ATGGTTCGATTATTGGTGGAGTTCTCTCTCGGTTTCTCCGCGGAGTCACCTAGTGCAG | 10600 fluorescence intensity (a.u.) |
| ATTCCATTCTGTATTCCTGCAACCGTGTGTGCTTTTTTCCCGGAGTCACCTAGTGCAG | 10700 fluorescence intensity (a.u.) |
| CGACAGTTTCCTTTTTCGCGACCACTTCCGATCTCCTAAACGGAGTCACCTAGTGCAG | 17000 fluorescence intensity (a.u.) |
| TGCACCATCTCATGCCACTACCATCAGTTGACCATGTGTTCGGAGTCACCTAGTGCAG | 11100 fluorescence intensity (a.u.) |
| ATAATCTGTTAATTTCAGTAAGTCTCACCTTATATGCTTCCGGAGTCACCTAGTGCAG | 8520 fluorescence intensity (a.u.) |
| TGTTTTTTTTACTCGGCCTCTATACCCAACCGGATACTCACGGAGTCACCTAGTGCAG | 8980 fluorescence intensity (a.u.) |
| CTCCAAATGGTCGCGCATACGCCGCTTTTTTCTATAGCTCCGGAGTCACCTAGTGCAG | 12800 fluorescence intensity (a.u.) |
| CCGTTTTCATTTTTGGGTTGGGAACATGTTCATGCGAACACGGAGTCACCTAGTGCAG | 9780 fluorescence intensity (a.u.) |
| TGCGCGCCGCTGCCGCCCCGCCCGTTCCATTCCATGATTCCGGAGTCACCTAGTGCAG | 10900 fluorescence intensity (a.u.) |
| TCCTACGGTCTGCACACCAAGCTTCGACGTGTCCGTGCCACGGAGTCACCTAGTGCAG | 9020 fluorescence intensity (a.u.) |
| TGTATTTCTATGGACTCTATACTCTACTTCTAATATTCCTCGGAGTCACCTAGTGCAG | 11300 fluorescence intensity (a.u.) |
| GGTATGGAAGGTGGGAGGGTAAAATGGTAATTGTTTTTTACGGAGTCACCTAGTGCAG | 14800 fluorescence intensity (a.u.) |
| CTATTTGGCACTCCATGCCCTGCACCACTCACCCTGCCACCGGAGTCACCTAGTGCAG | 10100 fluorescence intensity (a.u.) |
| ACATTCGGTAGTGCTACTCACGGTTCATCCCCAGTGTTTTCGGAGTCACCTAGTGCAG | 10000 fluorescence intensity (a.u.) |
| AGCCTTGCGTGTCACCTGCTCGATCAATTTCCTGGCCCAACGGAGTCACCTAGTGCAG | 8220 fluorescence intensity (a.u.) |
| AATTGTTTGGTTGGTAGAATGACGCCTCAATCCGCACCATCGGAGTCACCTAGTGCAG | 8040 fluorescence intensity (a.u.) |

| Sequence | binding signal |
| --- | --- |
| ACAACCTTATGCCTACATGGCGCATTTTGTTTGTTTGGGTCGGAGTCACCTAGTGCAG | 8320 fluorescence intensity (a.u.) |
| TTTGTTCTAATCATCCTTCGATTGGGTTGGGTTGAGCAATCGGAGTCACCTAGTGCAG | 9490 fluorescence intensity (a.u.) |
| TTATCACTTTATATGTCTTCTACTGGTGAAATATTACATTCGGAGTCACCTAGTGCAG | 9050 fluorescence intensity (a.u.) |
| GACCCATCGTCGCCTCGCCTAATCATCATCCTTTCCGATGCGGAGTCACCTAGTGCAG | 10800 fluorescence intensity (a.u.) |
| GTCCTGCCGCTTCAGCTGCTGCTGCTGCTTCTTCTACGCGCGGAGTCACCTAGTGCAG | 8280 fluorescence intensity (a.u.) |
| GCTCTTATCCCGAGCTCGTGTCACTGGTGGGGTGGGGCCCCGGAGTCACCTAGTGCAG | 16600 fluorescence intensity (a.u.) |
| GTTTTTTTCTAAGCATTGACTTTTAAATCGCTAACTATATCGGAGTCACCTAGTGCAG | 9670 fluorescence intensity (a.u.) |
| TTCTCTTCTTACCGTTGGCCACACCATGATAATACGCTGTCGGAGTCACCTAGTGCAG | 10300 fluorescence intensity (a.u.) |
| GGGCCTTAGTATTATTTTCTTCCAATTTTTTTAACTTCTACGGAGTCACCTAGTGCAG | 8740 fluorescence intensity (a.u.) |
| GCCCATTGTCTCTGTCCACTTGGCTCGGCCCACTTATAAGCGGAGTCACCTAGTGCAG | 9170 fluorescence intensity (a.u.) |
| CTTCTACTCACTTGTTTTTCACGCGTACACTTTAGGAATTCGGAGTCACCTAGTGCAG | 9750 fluorescence intensity (a.u.) |
| CGAGAAAATTGTTCCCCGATCGTGCTTATTCAAATCTACGCGGAGTCACCTAGTGCAG | 8150 fluorescence intensity (a.u.) |
| ATTCTTTTATCTGCTCTTCCATTTCATGCCATGTTGATATCGGAGTCACCTAGTGCAG | 11300 fluorescence intensity (a.u.) |
| ATCACGAACAATCGAACAACGTATAAACACATGCTTCTACCGGAGTCACCTAGTGCAG | 8960 fluorescence intensity (a.u.) |
| GGCAAGGGATGTGTGATATGTCTCGTTTGAAGTTTTTTTTCGGAGTCACCTAGTGCAG | 11500 fluorescence intensity (a.u.) |
| CCATCTTCGTCTTGAGACCGTTCGTGCTCTTATGATTTACCGGAGTCACCTAGTGCAG | 9140 fluorescence intensity (a.u.) |
| GACTAACAGTTTTATGGGTCTTTTAGGGTGGAGTGGAGCTCGGAGTCACCTAGTGCAG | 11000 fluorescence intensity (a.u.) |
| CCCGACTCCGTATGCCTTGCCTGTGCTGCGTTCACCTATGCGGAGTCACCTAGTGCAG | 8680 fluorescence intensity (a.u.) |
| CTGTGTAATTGGTTTTTTTTCCTACATTTAATACTCCATACGGAGTCACCTAGTGCAG | 11900 fluorescence intensity (a.u.) |
| ACTTGTATGTAAGTTTCACGTAATTTTGAATCGTCAGATCCGGAGTCACCTAGTGCAG | 9020 fluorescence intensity (a.u.) |
| AGATGAAAGGGGTTTGTGTGTCTTGTGCTATGCTTAAATTCGGAGTCACCTAGTGCAG | 12400 fluorescence intensity (a.u.) |

Exported in CSV form: entries from further up
Sequence,binding signal
GACCCATCGTCGCCTCGCCTAATCATCATCCTTTCCGATGCGGAGTCACCTAGTGCAG,10800 fluorescence intensity (a.u.)
ACTTGTATGTAAGTTTCACGTAATTTTGAATCGTCAGATCCGGAGTCACCTAGTGCAG,9020 fluorescence intensity (a.u.)
